Tested on: HLA molecules of melanoma, other tumor and normal tissue samples
Experiment: Identification and relative quantitation of tumor associated peptides presented on the cell surface (HLA immunoprecipitation, label-free LC-MS)
Set-up: species or system human; key to Peptide Presentation (presentation score): very highly over-presented on tumors compared to a panel of normal tissues (+++); highly over-presented on tumors compared to a panel of normal tissues (++); over-presented on tumors compared to a panel of normal tissues (+)
Conditions: for Peptide Presentation (presentation score): over-presentation on tumors compared to a panel of normal tissues; for Additional Entities (additional tumor types on which the peptide was found) / relevant organs/diseases (additional tumor types on which the peptide was found): over-presented on more than 5% of the measured tumor samples, or presented on more than 5% with ratio of geometric means tumor vs normal tissues larger than 3

Row | Substance | Peptide Presentation (presentation score) | Additional Entities (additional tumor types on which the peptide was found) | relevant organs/diseases (additional tumor types on which the peptide was found)
1 | 1 (FLDVKELML; listed as Homo sapiens) [compound 1] | +++ | Brain Cancer, OC | RCC, HCC, Uterine Cancer, Gallbladder Cancer, Bile Duct Cancer
2 | 2 (VLLGENVEL; listed as Homo sapiens) [compound 2] | +++ |  | NHL, BRCA
3 | 3 (VLFKDPVSV; listed as Homo sapiens) [compound 3] | +++ |  | 
4 | 4 (KTWDQVPFSV; listed as Homo sapiens) [compound 4] | +++ |  | 
5 | 5 (ILDEGHILQL; listed as Homo sapiens) [compound 5] | +++ |  | 
6 | 6 (SIPDTIASV; listed as Homo sapiens) [compound 6] | +++ |  | 
7 | 7 (NLQEKVPEL; listed as Homo sapiens) [compound 7] | +++ | HNSCC | PC, AML, BRCA, Uterine Cancer
8 | 8 (SIIPYLLEA; listed as Homo sapiens) [compound 8] | +++ | HCC, CLL, NHL, HNSCC | Uterine Cancer
9 | 9 (SLAGLVLYV; listed as Homo sapiens) [compound 9] | +++ |  | 
10 | 10 (KMTQYITEL; listed as Homo sapiens) [compound 10] | +++ |  | Brain Cancer
11 | 11 (TLIELLLPKL; listed as Homo sapiens) [compound 11] | +++ |  | CLL
12 | 13 (IQSETTVTV; listed as Homo sapiens) [compound 13] | ++ | HNSCC | 
13 | 14 (VLYEMLYGL; listed as Homo sapiens) [compound 14] | +++ | HNSCC | 
14 | 15 (VLYDPVVGC; listed as Homo sapiens) [compound 15] |  | HNSCC | CLL, NHL, AML, Uterine Cancer
15 | 16 (GLFPSNFVTA; listed as Homo sapiens) [compound 16] |  | CLL, BRCA, AML | 
16 | 17 (GVVHGVATV; listed as Homo sapiens) [compound 17] | ++ | NHL | AML, Urinary bladder cancer
17 | 18 (SLADVVDTL; listed as Homo sapiens) [compound 18] | + |  | Brain Cancer, CLL, NHL, Uterine Cancer
18 | 19 (VLAVLGAVVAV; listed as Homo sapiens) [compound 19] | +++ | HCC, CLL, HNSCC | SCLC, RCC, BRCA, Uterine Cancer
19 | 20 (VISPHGIASV; listed as Homo sapiens) [compound 20] | +++ | Esophageal Cancer, HNSCC | Brain Cancer, Uterine Cancer
20 | 21 (FMYNFQLVTL; listed as Homo sapiens) [compound 21] | ++ |  | SCLC, Urinary bladder cancer

Row | Substance | Peptide Presentation (presentation score) | Additional Entities (additional tumor types on which the peptide was found) | relevant organs/diseases (additional tumor types on which the peptide was found)
21 | 22 (KLLELQELVL; listed as Homo sapiens) [compound 22] | ++ | HNSCC | 
22 | 23 (FLGDPPPGL; listed as Homo sapiens) [compound 23] |  | Gallbladder Cancer, Bile Duct Cancer, HNSCC | CLL, NHL, AML, BRCA, Urinary bladder cancer, Uterine Cancer
23 | 24 (SLVAILHLL; listed as Homo sapiens) [compound 24] | ++ | NSCLC, OC, HNSCC | NHL, Gallbladder Cancer, Bile Duct Cancer
24 | 26 (KIEDLIKYL; listed as Homo sapiens) [compound 26] | +++ |  | 
25 | 27 (TLWYVPLSL; listed as Homo sapiens) [compound 27] | ++ | HNSCC | CLL, NHL, AML, Uterine Cancer
26 | 28 (IVDNTTMQL; listed as Homo sapiens) [compound 28] | + | GC, AML | 
27 | 29 (ILDDVAMVL; listed as Homo sapiens) [compound 29] |  |  | CLL, NHL
28 | 30 (VLFPMDLAL; listed as Homo sapiens) [compound 30] | +++ | HNSCC | RCC
29 | 31 (FLPRKFPSL; listed as Homo sapiens) [compound 31] | ++ | HNSCC | NSCLC, CRC, CLL, NHL, Esophageal Cancer, OC, Urinary bladder cancer, Uterine Cancer
30 | 32 (GLDIITNKV; listed as Homo sapiens) [compound 32] | ++ |  | NHL
31 | 33 (SLYSYFQKV; listed as Homo sapiens) [compound 33] | +++ |  | 
32 | 34 (YLINFEIRSL; listed as Homo sapiens) [compound 34] | +++ |  | 
33 | 35 (ALFAAGANV; listed as Homo sapiens) [compound 35] | +++ |  | 
34 | 36 (SVNGFISTL; listed as Homo sapiens) [compound 36] | +++ |  | AML
35 | 37 (TLKEYLESL; listed as Homo sapiens) [compound 37] | +++ | HCC, Esophageal Cancer | 
36 | 39 (ALPPPPASI; listed as Homo sapiens) [compound 39] | +++ |  | 
37 | 40 (LLSNTVSTL; listed as Homo sapiens) [compound 40] | +++ |  | 
38 | 41 (LLDDPTNAHFI; listed as Homo sapiens) [compound 41] | +++ |  | 
39 | 43 (LLPDPLYSL; listed as Homo sapiens) [compound 43] | +++ |  | 
40 | 45 (FVYGEPREL; listed as Homo sapiens) [compound 45] | +++ |  | 

Row | Substance | Peptide Presentation (presentation score) | Additional Entities (additional tumor types on which the peptide was found) | relevant organs/diseases (additional tumor types on which the peptide was found)
41 | 46 (VMSSTLYTV; listed as Homo sapiens) [compound 46] | +++ |  | 
42 | 47 (ALDSDPVGL; listed as Homo sapiens) [compound 47] | +++ |  | 
43 | 48 (HLIGWTAFL; listed as Homo sapiens) [compound 48] | +++ |  | 
44 | 49 (ALLSQDFEL; listed as Homo sapiens) [compound 49] | +++ |  | 
45 | 51 (LIDKIIEYL; listed as Homo sapiens) [compound 51] | +++ |  | 
46 | 52 (NLDYAILKL; listed as Homo sapiens) [compound 52] | +++ |  | 
47 | 53 (ILDEEKFNV; listed as Homo sapiens) [compound 53] | +++ |  | 
48 | 54 (LLDSGAFHL; listed as Homo sapiens) [compound 54] | +++ |  | 
49 | 56 (ILDELVKSL; listed as Homo sapiens) [compound 56] | +++ |  | 
50 | 57 (GILSFLPVL; listed as Homo sapiens) [compound 57] | +++ |  | CLL, NHL
51 | 58 (ILGDWSIQV; listed as Homo sapiens) [compound 58] | +++ | HNSCC | 
52 | 59 (IIDDVMKEL; listed as Homo sapiens) [compound 59] | ++ | AML | 
53 | 60 (ILPEAQDYFL; listed as Homo sapiens) [compound 60] | +++ |  | 
54 | 61 (KLSVHVTAL; listed as Homo sapiens) [compound 61] | +++ |  | 
55 | 62 (LLDTTQKYL; listed as Homo sapiens) [compound 62] | +++ | AML | 
56 | 63 (SIDDSDPIV; listed as Homo sapiens) [compound 63] | +++ |  | 
57 | 64 (SLGPIMLTKI; listed as Homo sapiens) [compound 64] | +++ | HCC | 
58 | 65 (TTLGGFAKV; listed as Homo sapiens) [compound 65] | +++ |  | 
59 | 66 (VMFEYGMRL; listed as Homo sapiens) [compound 66] | +++ |  | 
